Experimental data: PubChem BioAssay AID686938 (Drosophila RNAi Screening Center, 2013)

- Aim: 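Looking for CRAC channel components and the factors controlling them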 (primary screen)
- Cell system: Drosophila S2R+ cells
- Reagent: long dsRNA against Drosophila genes, about 0.25 µg dsRNA per well, roughly 10,000 cells
- Timing: 5 days of knock-down before the calcium assay
- Treatment: thapsigargin (SERCA pump blocker) to empty calcium stores; entry signal taken 4 min after adding it
- Measured: 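Duplicate raw fluo-4 intensities per well from a plate reader, at rest and four minutes after thapsigargin emptied calcium stores; entry-to-rest ratio filled for only some wells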
- Direction: calcium entry signal: higher = stronger calcium signal after store depletion; entry to resting ratio: higher = more calcium entry relative to resting level; resting calcium signal: higher = higher resting calcium signal
- Units: calcium entry signal in fluorescence units; resting calcium signal in fluorescence units
- Call rule: 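Called when the plate z-score of the entry-to-rest ratio, mean of duplicates, falls below −3; wells with low overall dye signal (Fmax z below −2) or more than five off-targets excluded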
- Meaning of the calls: active = strongly reduced calcium entry; inactive = no strong reduction
The screen tested about 23,000 reagents; shown is a random part of those with a known target gene and a result. In the full data, 75 (0.33%) got an active call. 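Raw plate signals without normalisation; calls rest on plate z-scores that were not deposited; ratio present for only 364 wells.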 A plus sign joins genes that one reagent is predicted to hit. Not stated in the record: the dose of the treatment.

Ibf2 [DRSC16551] → calcium entry signal, replicate 1 = 3.10e7; calcium entry signal, replicate 2 = 3.44e7; resting calcium signal, replicate 1 = 1.65e7; resting calcium signal, replicate 2 = 1.78e7; activity call = inactive
tHMG2 [DRSC16182] → calcium entry signal, replicate 1 = 3.09e7; calcium entry signal, replicate 2 = 4.07e7; resting calcium signal, replicate 1 = 4.63e7; resting calcium signal, replicate 2 = 1.90e7; activity call = inactive
Ser8 [DRSC06891] → calcium entry signal, replicate 1 = 3.14e7; calcium entry signal, replicate 2 = 3.97e7; resting calcium signal, replicate 1 = 1.67e7; resting calcium signal, replicate 2 = 1.82e7; activity call = inactive
CG15336 [DRSC18019] → calcium entry signal, replicate 1 = 2.78e7; calcium entry signal, replicate 2 = 3.74e7; resting calcium signal, replicate 1 = 1.37e7; resting calcium signal, replicate 2 = 1.76e7; activity call = inactive
CG2187 [DRSC15425] → calcium entry signal, replicate 1 = 2.67e7; calcium entry signal, replicate 2 = 4.14e7; entry to resting ratio = 1.8; resting calcium signal, replicate 1 = 1.48e7; resting calcium signal, replicate 2 = 1.71e7; activity call = inactive
crp [DRSC03515] → calcium entry signal, replicate 1 = 3.14e7; calcium entry signal, replicate 2 = 2.29e7; resting calcium signal, replicate 1 = 1.53e7; resting calcium signal, replicate 2 = 1.14e7; activity call = inactive
Tes [DRSC06996] → calcium entry signal, replicate 1 = 5.19e7; calcium entry signal, replicate 2 = 5.04e7; resting calcium signal, replicate 1 = 2.27e7; resting calcium signal, replicate 2 = 2.47e7; activity call = inactive
CG17684 [DRSC07724] → calcium entry signal, replicate 1 = 2.86e7; calcium entry signal, replicate 2 = 5.88e7; resting calcium signal, replicate 1 = 1.41e7; resting calcium signal, replicate 2 = 2.77e7; activity call = inactive
CG17684 [DRSC21166] → calcium entry signal, replicate 1 = 5.25e7; calcium entry signal, replicate 2 = 4.81e7; resting calcium signal, replicate 1 = 2.51e7; resting calcium signal, replicate 2 = 1.90e7; activity call = inactive
Gapdh2 [DRSC20246] → calcium entry signal, replicate 1 = 3.36e7; calcium entry signal, replicate 2 = 3.92e7; resting calcium signal, replicate 1 = 2.05e7; resting calcium signal, replicate 2 = 1.91e7; activity call = inactive
GATAd [DRSC02803] → calcium entry signal, replicate 1 = 4.00e7; resting calcium signal, replicate 1 = 2.11e7; activity call = inactive
CG14854 [DRSC14978] → calcium entry signal, replicate 1 = 2.69e7; calcium entry signal, replicate 2 = 4.11e7; resting calcium signal, replicate 1 = 1.44e7; resting calcium signal, replicate 2 = 5.43e7; activity call = inactive
CG13679 [DRSC10037] → calcium entry signal, replicate 1 = 3.58e7; calcium entry signal, replicate 2 = 4.79e7; resting calcium signal, replicate 1 = 1.73e7; resting calcium signal, replicate 2 = 2.36e7; activity call = inactive
CG13679 [DRSC22749] → calcium entry signal, replicate 1 = 3.66e7; calcium entry signal, replicate 2 = 3.76e7; resting calcium signal, replicate 1 = 2.06e7; resting calcium signal, replicate 2 = 1.69e7; activity call = inactive
Vps50 [DRSC06910] → calcium entry signal, replicate 1 = 3.36e7; calcium entry signal, replicate 2 = 2.49e7; resting calcium signal, replicate 1 = 1.54e7; resting calcium signal, replicate 2 = 1.29e7; activity call = inactive
Cpr62Bb [DRSC08404] → calcium entry signal, replicate 1 = 3.66e7; calcium entry signal, replicate 2 = 3.56e7; resting calcium signal, replicate 1 = 1.86e7; resting calcium signal, replicate 2 = 1.79e7; activity call = inactive
Obp83cd [DRSC12267] → calcium entry signal, replicate 1 = 4.87e7; calcium entry signal, replicate 2 = 4.01e7; resting calcium signal, replicate 1 = 2.28e7; resting calcium signal, replicate 2 = 1.91e7; activity call = inactive
fzo [DRSC16954] → calcium entry signal, replicate 1 = 3.70e7; calcium entry signal, replicate 2 = 6.52e7; resting calcium signal, replicate 1 = 1.83e7; resting calcium signal, replicate 2 = 2.75e7; activity call = inactive
Jhbp1 [DRSC12167] → calcium entry signal, replicate 1 = 2.97e7; calcium entry signal, replicate 2 = 4.96e7; resting calcium signal, replicate 1 = 1.48e7; resting calcium signal, replicate 2 = 2.29e7; activity call = inactive
Pkn [DRSC06809] → calcium entry signal, replicate 1 = 2.54e7; calcium entry signal, replicate 2 = 2.36e7; resting calcium signal, replicate 1 = 1.08e7; resting calcium signal, replicate 2 = 1.16e7; activity call = inactive
Pkn [DRSC06810] → calcium entry signal, replicate 1 = 4.64e7; calcium entry signal, replicate 2 = 4.32e7; resting calcium signal, replicate 1 = 2.21e7; resting calcium signal, replicate 2 = 1.89e7; activity call = inactive
Orp8 [DRSC15110] → calcium entry signal, replicate 1 = 3.01e7; calcium entry signal, replicate 2 = 5.80e7; resting calcium signal, replicate 1 = 4.24e7; resting calcium signal, replicate 2 = 2.72e7; activity call = inactive
Orp8 [DRSC15712] → calcium entry signal, replicate 1 = 3.84e7; calcium entry signal, replicate 2 = 3.95e7; resting calcium signal, replicate 1 = 1.92e7; resting calcium signal, replicate 2 = 1.77e7; activity call = inactive
Acp95EF + Spase22-23 [DRSC14102] → calcium entry signal, replicate 1 = 4.74e7; calcium entry signal, replicate 2 = 6.83e7; resting calcium signal, replicate 1 = 2.35e7; resting calcium signal, replicate 2 = 2.76e7; activity call = inactive
Con [DRSC08652] → calcium entry signal, replicate 1 = 4.89e7; calcium entry signal, replicate 2 = 3.54e7; resting calcium signal, replicate 1 = 3.04e7; resting calcium signal, replicate 2 = 1.48e7; activity call = inactive
Bili [DRSC14405] → calcium entry signal, replicate 1 = 3.97e7; calcium entry signal, replicate 2 = 3.15e7; resting calcium signal, replicate 1 = 1.87e7; resting calcium signal, replicate 2 = 1.49e7; activity call = inactive
Pcl [DRSC07503] → calcium entry signal, replicate 1 = 3.44e7; calcium entry signal, replicate 2 = 3.49e7; resting calcium signal, replicate 1 = 1.61e7; resting calcium signal, replicate 2 = 1.69e7; activity call = inactive

Just “resting calcium signal, replicate 1” (4 entries from above):
CG17684 [DRSC21166]	2.51e7
Gapdh2 [DRSC20246]	2.05e7
GATAd [DRSC02803]	2.11e7
CG14854 [DRSC14978]	1.44e7
